Where two headings read alike, the source gives them in different places. These are yes or no findings as the source states them, for the method shown. Some binding calls cover weakened binding; strength is not graded here. For some of these results: Where a sequence is shown, tags or fusion partners need not be part of it.

Sequences of proteins named here, by UniProt entry; tags and fusion partners are left off.
UniProt Q8RWY3: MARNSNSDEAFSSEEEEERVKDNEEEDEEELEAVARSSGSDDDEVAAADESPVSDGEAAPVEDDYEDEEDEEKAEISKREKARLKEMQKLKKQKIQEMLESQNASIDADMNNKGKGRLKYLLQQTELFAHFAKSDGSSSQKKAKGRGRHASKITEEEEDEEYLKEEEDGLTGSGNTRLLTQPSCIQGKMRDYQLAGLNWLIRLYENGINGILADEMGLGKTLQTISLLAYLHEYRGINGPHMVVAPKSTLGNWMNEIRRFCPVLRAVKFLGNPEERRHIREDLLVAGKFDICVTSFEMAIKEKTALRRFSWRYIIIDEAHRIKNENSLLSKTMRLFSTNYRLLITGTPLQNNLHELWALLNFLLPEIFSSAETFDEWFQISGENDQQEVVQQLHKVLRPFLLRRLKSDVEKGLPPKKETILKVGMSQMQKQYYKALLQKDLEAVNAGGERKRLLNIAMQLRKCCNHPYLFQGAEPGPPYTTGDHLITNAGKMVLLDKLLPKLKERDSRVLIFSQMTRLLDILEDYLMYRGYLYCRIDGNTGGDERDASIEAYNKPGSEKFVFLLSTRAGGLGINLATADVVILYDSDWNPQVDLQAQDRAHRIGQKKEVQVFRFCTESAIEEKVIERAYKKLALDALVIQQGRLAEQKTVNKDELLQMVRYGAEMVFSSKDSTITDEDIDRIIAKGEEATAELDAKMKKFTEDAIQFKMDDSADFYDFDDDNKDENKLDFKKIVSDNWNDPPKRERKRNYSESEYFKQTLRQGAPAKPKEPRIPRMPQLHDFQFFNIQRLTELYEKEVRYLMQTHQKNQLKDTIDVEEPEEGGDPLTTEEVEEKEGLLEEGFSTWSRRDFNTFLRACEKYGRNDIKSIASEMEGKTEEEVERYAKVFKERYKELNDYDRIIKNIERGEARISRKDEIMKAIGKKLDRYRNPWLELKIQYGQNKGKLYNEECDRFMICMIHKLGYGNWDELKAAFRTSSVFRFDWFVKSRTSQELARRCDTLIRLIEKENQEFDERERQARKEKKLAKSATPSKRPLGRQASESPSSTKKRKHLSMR

In experiment [1] the target is T1, AL2 (recombinant, pull-down) (Arabidopsis thaliana) (UniProt Q9SRM4).
T1 sequence: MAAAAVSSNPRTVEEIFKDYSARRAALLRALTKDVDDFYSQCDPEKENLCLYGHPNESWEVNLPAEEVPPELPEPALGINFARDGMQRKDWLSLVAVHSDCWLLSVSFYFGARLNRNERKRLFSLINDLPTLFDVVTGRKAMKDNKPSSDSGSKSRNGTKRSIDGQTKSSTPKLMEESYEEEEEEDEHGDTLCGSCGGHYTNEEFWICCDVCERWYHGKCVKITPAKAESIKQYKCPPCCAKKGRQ
Briefly: pull-down.

In experiment [2] the target is T1, AL2 (recombinant, pull-down) (Arabidopsis thaliana). The experiment can be described thus: pull-down. This is another data set of the same source.

On to “CHR11 (recombinant, pull-down) (from UniProt Q8RWY3 1-1056)”, for which the binding entry in experiment [1] is recorded as “no binding”.

B1: SDG26 (histone methyltransferase, subunit of the AuPC complex) (protein, UniProt Q84WW6 1-492)
chain: MQFSCDPDQEGDELPQYEHIYQNDFSYRKHKKQKEEDISICECKFDFGDPDSACGERCLNVITNTECTPGYCPCGVYCKNQKFQKCEYAKTKLIKCEGRGWGLVALEEIKAGQFIMEYCGEVISWKEAKKRAQTYETHGVKDAYIISLNASEAIDATKKGSLARFINHSCRPNCETRKWNVLGEVRVGIFAKESISPRTELAYDYNFEWYGGAKVRCLCGAVACSGFLGAKSRGFQEDTYVWEDGDDRYSVDKIPVYDSAEDELTSEPSKNGESNTNEEKEKDISTENHLESTALNIQQQSDSTPTPMEEDVVTETVKTETSEDMKLLSQNSQEDSSPKTAIVSRVHGNISKIKSESLPKKRGRPFSGGKTKNVAQKHVDIANVVQLLATKEAQDEVLKYEEVKKEAAVRLSSLYDEIRPAIEEHERDSQDSVATSVAEKWIQASCNKLKAEFDLYSSVIKNIASTPIKPQDTKTKVAEAGNEDHIKLLEAK
Turning to B1, the binding result in experiment [2] is “binds”.

B2: FLD (LSD-like histone demethylase) (protein, UniProt Q9CAE3 1-789)
chain: MVSFSAPKKRRRGRSQRSMSSLNSLPVPNVGLLPGNSNFVSSSASSSGRFNVEVVNGSNQTVKSYPGIGDEIITINKEATTEALLALTAGFPADSLTEEEIEFGVVPIVGGIEQVNYILIRNHIISKWRENISSWVTKEMFLNSIPKHCSSLLDSAYNYLVTHGYINFGIAQAIKDKFPAQSSKSSVIIVGAGLSGLAAARQLMRFGFKVTVLEGRKRPGGRVYTKKMEANRVGAAADLGGSVLTGTLGNPLGIIARQLGSSLYKVRDKCPLYRVDGKPVDPDVDIKVEVAFNQLLDKASKLRQLMGDVSMDVSLGAALETFRQVSGNDVATEEMGLFNWHLANLEYANAGLVSKLSLAFWDQDDPYDMGGDHCFLPGGNGRLVQALAENVPILYEKTVQTIRYGSNGVKVTAGNQVYEGDMVLCTVPLGVLKNGSIKFVPELPQRKLDCIKRLGFGLLNKVAMLFPYVFWSTDLDTFGHLTEDPNYRGEFFLFYSYAPVAGGALLIALVAGEAAHKFETMPPTDAVTRVLHILRGIYEPQGINVPDPLQTVCTRWGGDPFSLGSYSNVAVGASGDDYDILAESVGDGRLFFAGEATTRRYPATMHGAFVTGLREAANMAQSAKARGIRKRIDRNPSRNAHSCAILLADLFRDPDLEFGSFCIIFSRRNPDPKSPAILRVTLSEPRKRNEDPKADQHSNKILFQQLQSHFNQQQQIQVYTLLTRQQALDLREVRGGDEKRLYYLCETLGVKLVGRKGLGVGADSVIASIKAERTGRKLPSSSTSGTKSG
As for B2, the binding result in experiment [2] is given as “binds”.

B3: SNL2 (HDAC accessory subunit) (protein, UniProt Q9LFQ3 1-1367)
chain: MKRIRDDIYATGSQFKRPLGSSRGESYEQSPITGGGSIGEGGINTQKLTTDDALTYLKEVKEMFQDQRDKYDMFLEVMKDFKAQKTDTSGVISRVKELFKGHNNLIFGFNTFLPKGFEITLDDVEAPSKKTVEFEEAISFVNKIKTRFQHNELVYKSFLEILNMYRKDNKDITEVYNEVSTLFEDHSDLLEEFTRFLPDSLAPHTEAQLLRSQAQRYDDRGSGPPLVRRMFMEKDRRRERTVASRGDRDHSVDRSDLNDDKSMVKMHRDQRKRVDKDNRERRSRDLEDGEAEQDNLQHFSEKRKSSRRMEGFEAYSGPASHSEKNNLKSMYNQAFLFCEKVKERLCSQDDYQAFLKCLNMFSNGIIQRKDLQNLVSDVLGKFPDLMDEFNQFFERCESIDGFQHLAGVMSKKSLGSEENLSRSVKGEEKDREHKRDVEAAKEKERSKDKYMGKSIQELDLSDCERCTPSYRLLPPDYPIPSVRHRQKSGAAVLNDHWVSVTSGSEDYSFKHMRRNQYEESLFRCEDDRFELDMLLESVGSAAKSAEELLNIIIDKKISFEGSFRIEDHFTALNLRCIERLYGDHGLDVTDLIRKNPAAALPVILTRLKQKQDEWTKCREGFNVVWADVYAKNHYKSLDHRSFYFKQQDSKNLSAKALVSEVKDLKEKSQKEDDVVLSISAGYRQPIIPHLEYDYLDRAIHEDLFKLVQFSCEEICSTKEQTGKVLKLWANFLELMLDVAPRAKGSDSVEDVVETQHQRAFTSGEANESSDAISLVSRQLKFATNGDVHASSGVSKHGETGLLNRDSSGKENLKDGDLANKDVATCAEKPQKDQEIGNGAAKRSGDVDERVATSSSSFPSGVENNNGKVGSRDSSGSRGILSKPSEAIDKVDSIQHTQGVDIGRIIVLGNGLQSDTSKANSNYDESGGPSKIEKEEGELSPVGDSEDNFVVYEDRELKATAKTEHSVEAEGENDEDADDEDGDDASEAGEDASGTESIGDECSQDDNGVEEEGEHDEIDGKAESEGEAEGMESHLIEDKGLFPSSERVLLSVKPLSKHIAAAALVDEKKKDSRVFYGNDDFYVLFRLHRVSAIDSYDLLSHILYERILSAKTYCSGSEMKLRNTKDTCSPDPYARFMNALFSLLNGSAENSKFEDECRAIIGNQSYVLFTLEKLIYKLVKQLQAVVADDMDNKLLQLYEYENSRRPGRVFDSVYYENARILLHEENIYRLECSSSPSRLSIQLMDNIIEKPDAYAVSMEPTFTSYLQNEFLSNSSGKKELQDIVLQRNMRGYNGLDDLAVACKAMEGVQVINGLECKMSCSSYKISYVLDTEDFFHRKKKQKKSNNLSLAKLSQNRIARFHKFLSASR
Take B3: the binding entry in experiment [2] was “binds”.

These data come from publication doi:10.1101/2024.09.12.612777 (bioRxiv, 2024).
